Results as given in patent publication US9931629B2, “Substance exposure apparatus” (The University of Queensland, priority 2011, dated 2018).
At least one structure is not confirmed: it was looked up by name or label, or the drawing left a doubt.

Test system: HES3-EOS-C(3+)-EiP hESC
Assay: hESC pluripotency screening in microbioreactor array (EOS-GFP reporter)
Format: cell-based, human
Settings: 5 or 10 μM RA, 6.5 d, regardless of FGF-2 or TGF-β1 treatment

For `CC1=C(/C=C/C(C)=C/C=C/C(C)=C/C(=O)O)C(C)(C)CCC1` [RA, retinoic acid], which EOS-GFP expression is on record?
The EOS-GFP expression was “abrogated EOS-GFP expression to a low baseline level”.
